Data from patent US20210404962A1.
Results are given in words; binding and its absence hold for the method and conditions named. Some results given as binding are weak or reduced against the parent protein; the word gives no strength.

Legend:
[1] = biological target: Dendra1-10 (large fragment of split Dendra2); assay: in vitro fluorescence reconstitution
[2] = biological target: Dendra1-10 (large fragment of split Dendra2); assay: co-expression in HEK293 cells, fluorescence complementation
[3] = biological target: Dendra1-10 (large fragment of split Dendra2); assay: in vitro fluorescence reconstitution, read every 0.1 s for 30 s
[4] = biological target: Dendra1-10 (large fragment of split Dendra2); assay: in vitro fluorescence complementation, purified XFP1-10 and synthesized XFP11 peptide

binding [1]: binds
binding [2]: binds
binding [3]: binds
binding [4]: binds
Binder: MGGGPDAHFVDHRIEILGNDSDYNKVKLYEHAVARYSPLPSQVW [Dendra11 (small fragment of split Dendra2)]
